Experimental data as given in patent US11866474B2 (UNIVERSITY OF SOUTH FLORIDA, priority 2021, dated 2024).

Test: general procedure: Fmoc solid-phase peptide synthesis; Fmoc-Rink Amide MBHA resin (0.6 mmol/g, 200-400 mesh; Chem-Impex International); HOBt/DIC
Settings: whole synthesis, analytical HPLC (Waters Breeze 2), 1 mL/min, scale of the general procedure 100 mg resin

Ac-KLTWQELYQLKYKGI
final HPLC purity: 99.1%
